# Measured values: the supplement of paper PMC10849652
# The chains behind the UniProt entries cited, without tags or fusion partners. Where a name states a change or a piece, a line headed by the entry shows the natural chain unless it says otherwise.
# UniProt Q8N4Q1: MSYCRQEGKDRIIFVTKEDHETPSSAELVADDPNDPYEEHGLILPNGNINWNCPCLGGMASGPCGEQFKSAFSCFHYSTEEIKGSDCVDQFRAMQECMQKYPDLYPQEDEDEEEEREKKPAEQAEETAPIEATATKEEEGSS
# UniProt I3L2J0: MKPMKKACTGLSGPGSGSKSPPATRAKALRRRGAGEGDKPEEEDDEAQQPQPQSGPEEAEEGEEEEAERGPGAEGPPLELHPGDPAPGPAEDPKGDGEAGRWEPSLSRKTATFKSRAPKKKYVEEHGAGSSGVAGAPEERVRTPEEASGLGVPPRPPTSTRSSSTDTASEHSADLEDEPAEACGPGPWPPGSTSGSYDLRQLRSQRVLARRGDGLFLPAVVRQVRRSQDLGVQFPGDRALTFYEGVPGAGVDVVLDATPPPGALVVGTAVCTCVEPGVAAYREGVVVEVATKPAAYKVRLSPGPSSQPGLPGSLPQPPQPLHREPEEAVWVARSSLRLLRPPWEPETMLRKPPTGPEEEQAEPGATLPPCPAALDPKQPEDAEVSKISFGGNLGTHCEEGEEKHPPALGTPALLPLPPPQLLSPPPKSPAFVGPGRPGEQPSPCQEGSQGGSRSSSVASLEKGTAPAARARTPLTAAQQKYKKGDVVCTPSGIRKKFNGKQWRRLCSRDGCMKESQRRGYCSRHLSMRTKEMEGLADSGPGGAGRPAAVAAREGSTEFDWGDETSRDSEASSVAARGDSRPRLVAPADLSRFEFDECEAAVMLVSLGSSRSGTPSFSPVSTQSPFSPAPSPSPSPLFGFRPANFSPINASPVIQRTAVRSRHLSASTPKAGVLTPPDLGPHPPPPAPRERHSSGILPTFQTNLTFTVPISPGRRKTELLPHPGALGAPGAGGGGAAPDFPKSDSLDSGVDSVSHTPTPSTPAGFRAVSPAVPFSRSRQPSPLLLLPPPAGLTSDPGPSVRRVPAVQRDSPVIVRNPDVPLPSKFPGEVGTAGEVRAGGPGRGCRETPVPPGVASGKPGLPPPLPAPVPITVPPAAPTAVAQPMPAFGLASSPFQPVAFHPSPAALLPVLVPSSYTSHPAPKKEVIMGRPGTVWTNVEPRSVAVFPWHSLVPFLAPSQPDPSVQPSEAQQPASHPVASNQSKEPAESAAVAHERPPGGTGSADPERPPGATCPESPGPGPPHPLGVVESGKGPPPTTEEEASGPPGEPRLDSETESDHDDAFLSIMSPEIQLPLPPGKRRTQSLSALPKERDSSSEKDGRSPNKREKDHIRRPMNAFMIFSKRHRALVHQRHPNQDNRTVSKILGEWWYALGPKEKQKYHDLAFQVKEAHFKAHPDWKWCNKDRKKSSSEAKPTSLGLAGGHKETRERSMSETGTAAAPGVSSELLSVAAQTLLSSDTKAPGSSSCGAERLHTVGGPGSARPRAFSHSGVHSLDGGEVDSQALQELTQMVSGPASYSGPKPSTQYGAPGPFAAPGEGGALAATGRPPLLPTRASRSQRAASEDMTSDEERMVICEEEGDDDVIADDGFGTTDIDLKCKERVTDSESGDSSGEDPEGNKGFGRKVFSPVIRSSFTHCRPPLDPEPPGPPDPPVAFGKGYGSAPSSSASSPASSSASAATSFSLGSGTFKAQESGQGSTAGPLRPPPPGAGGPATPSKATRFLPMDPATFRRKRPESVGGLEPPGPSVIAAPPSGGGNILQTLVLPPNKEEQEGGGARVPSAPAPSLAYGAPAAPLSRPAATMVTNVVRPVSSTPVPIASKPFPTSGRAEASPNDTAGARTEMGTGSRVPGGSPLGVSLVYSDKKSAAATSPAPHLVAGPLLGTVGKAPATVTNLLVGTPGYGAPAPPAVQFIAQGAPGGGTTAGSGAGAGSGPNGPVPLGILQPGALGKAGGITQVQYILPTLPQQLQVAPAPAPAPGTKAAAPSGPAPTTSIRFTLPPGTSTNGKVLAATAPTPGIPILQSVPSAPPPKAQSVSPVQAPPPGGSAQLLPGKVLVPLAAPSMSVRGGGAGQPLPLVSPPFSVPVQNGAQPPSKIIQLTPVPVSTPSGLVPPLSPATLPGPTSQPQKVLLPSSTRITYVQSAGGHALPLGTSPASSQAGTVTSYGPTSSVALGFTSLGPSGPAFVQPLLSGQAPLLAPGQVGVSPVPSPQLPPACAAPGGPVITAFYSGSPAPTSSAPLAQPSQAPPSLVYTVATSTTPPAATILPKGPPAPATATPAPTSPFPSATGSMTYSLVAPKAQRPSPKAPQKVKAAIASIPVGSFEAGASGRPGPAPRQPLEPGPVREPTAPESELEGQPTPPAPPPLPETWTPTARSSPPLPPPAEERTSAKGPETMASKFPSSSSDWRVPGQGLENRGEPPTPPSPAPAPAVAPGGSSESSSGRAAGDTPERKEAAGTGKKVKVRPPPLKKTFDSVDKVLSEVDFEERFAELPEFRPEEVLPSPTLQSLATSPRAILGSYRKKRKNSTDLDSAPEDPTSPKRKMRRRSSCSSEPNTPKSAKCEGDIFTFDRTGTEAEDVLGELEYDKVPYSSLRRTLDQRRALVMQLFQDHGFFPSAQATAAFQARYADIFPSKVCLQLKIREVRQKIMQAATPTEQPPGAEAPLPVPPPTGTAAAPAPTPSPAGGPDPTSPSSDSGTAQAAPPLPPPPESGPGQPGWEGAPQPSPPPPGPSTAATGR
# UniProt Q9BY43: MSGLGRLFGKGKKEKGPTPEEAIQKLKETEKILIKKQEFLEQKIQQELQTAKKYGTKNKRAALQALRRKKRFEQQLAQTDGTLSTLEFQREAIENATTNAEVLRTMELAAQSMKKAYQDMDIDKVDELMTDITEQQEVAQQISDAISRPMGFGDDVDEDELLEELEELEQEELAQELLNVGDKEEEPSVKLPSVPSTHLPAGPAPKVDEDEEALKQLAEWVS
# UniProt Q8IWX8: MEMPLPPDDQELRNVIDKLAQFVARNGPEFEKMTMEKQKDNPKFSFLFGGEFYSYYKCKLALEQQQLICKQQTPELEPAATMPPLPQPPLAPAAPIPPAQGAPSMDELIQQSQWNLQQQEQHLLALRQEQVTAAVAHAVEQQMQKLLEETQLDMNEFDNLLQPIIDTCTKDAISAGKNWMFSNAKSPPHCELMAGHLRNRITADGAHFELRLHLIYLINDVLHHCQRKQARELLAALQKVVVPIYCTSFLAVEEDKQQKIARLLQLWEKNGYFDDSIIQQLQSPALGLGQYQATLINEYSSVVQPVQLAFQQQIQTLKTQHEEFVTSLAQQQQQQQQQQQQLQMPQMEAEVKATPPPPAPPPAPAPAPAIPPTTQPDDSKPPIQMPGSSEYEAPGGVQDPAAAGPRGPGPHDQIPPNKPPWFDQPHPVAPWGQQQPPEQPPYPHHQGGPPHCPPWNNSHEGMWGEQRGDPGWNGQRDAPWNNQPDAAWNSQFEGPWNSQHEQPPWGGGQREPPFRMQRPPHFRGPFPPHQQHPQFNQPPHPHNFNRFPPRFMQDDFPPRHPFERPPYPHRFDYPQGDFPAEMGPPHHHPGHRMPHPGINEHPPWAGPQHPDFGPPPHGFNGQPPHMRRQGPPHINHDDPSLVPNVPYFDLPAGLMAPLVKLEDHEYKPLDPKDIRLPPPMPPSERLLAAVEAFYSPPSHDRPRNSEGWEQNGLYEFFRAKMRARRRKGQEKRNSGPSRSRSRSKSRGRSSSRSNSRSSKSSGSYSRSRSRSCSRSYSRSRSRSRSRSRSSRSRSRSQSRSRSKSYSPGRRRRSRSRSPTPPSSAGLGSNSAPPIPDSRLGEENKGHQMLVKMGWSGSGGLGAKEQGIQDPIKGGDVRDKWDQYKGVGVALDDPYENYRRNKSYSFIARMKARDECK
# UniProt Q8N2M8: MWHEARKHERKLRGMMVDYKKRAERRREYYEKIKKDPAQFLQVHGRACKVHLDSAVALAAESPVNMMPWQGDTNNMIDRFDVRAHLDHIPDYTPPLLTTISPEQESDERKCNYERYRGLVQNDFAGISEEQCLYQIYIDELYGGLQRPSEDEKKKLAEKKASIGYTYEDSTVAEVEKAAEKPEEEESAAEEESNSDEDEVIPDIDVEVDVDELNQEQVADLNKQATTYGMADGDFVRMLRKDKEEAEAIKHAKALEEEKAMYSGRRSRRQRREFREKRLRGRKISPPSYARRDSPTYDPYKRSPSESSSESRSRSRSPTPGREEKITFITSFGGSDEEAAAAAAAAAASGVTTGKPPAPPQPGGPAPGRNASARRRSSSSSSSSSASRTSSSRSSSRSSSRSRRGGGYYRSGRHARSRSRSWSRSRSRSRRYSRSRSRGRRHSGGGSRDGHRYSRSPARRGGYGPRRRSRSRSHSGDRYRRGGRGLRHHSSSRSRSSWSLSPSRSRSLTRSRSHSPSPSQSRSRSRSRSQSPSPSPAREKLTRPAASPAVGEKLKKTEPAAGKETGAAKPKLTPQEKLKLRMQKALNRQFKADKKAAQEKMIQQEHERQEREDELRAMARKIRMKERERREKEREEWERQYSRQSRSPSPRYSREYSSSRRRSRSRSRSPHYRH
# UniProt Q96DG6: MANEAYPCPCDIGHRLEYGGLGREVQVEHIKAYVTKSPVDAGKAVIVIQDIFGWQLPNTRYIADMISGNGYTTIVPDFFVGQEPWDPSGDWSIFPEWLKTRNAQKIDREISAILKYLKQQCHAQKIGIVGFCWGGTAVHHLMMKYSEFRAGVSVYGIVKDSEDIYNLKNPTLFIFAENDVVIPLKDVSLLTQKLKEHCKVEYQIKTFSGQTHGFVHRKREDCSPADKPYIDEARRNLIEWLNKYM
# UniProt Q96MX0: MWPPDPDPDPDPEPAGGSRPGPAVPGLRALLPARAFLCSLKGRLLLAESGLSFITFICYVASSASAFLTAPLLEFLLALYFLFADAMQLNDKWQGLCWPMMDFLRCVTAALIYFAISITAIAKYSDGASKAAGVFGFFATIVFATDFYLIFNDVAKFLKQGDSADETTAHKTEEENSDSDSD
# UniProt P24386: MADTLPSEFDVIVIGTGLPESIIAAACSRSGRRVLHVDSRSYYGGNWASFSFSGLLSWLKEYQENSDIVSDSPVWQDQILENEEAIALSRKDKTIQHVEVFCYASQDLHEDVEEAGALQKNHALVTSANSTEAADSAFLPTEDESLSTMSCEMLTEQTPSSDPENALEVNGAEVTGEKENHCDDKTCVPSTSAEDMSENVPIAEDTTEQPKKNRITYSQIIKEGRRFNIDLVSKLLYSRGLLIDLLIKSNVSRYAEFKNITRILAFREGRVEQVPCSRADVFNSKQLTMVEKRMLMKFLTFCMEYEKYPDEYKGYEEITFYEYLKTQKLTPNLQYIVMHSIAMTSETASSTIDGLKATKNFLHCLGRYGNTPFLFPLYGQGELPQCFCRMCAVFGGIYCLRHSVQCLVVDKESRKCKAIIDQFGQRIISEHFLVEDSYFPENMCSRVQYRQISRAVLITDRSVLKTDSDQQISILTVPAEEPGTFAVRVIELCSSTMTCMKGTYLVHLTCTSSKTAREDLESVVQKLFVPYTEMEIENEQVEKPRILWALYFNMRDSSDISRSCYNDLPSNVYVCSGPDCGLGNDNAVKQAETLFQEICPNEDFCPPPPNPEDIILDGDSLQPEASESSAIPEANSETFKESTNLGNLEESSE
# UniProt Q86WJ1: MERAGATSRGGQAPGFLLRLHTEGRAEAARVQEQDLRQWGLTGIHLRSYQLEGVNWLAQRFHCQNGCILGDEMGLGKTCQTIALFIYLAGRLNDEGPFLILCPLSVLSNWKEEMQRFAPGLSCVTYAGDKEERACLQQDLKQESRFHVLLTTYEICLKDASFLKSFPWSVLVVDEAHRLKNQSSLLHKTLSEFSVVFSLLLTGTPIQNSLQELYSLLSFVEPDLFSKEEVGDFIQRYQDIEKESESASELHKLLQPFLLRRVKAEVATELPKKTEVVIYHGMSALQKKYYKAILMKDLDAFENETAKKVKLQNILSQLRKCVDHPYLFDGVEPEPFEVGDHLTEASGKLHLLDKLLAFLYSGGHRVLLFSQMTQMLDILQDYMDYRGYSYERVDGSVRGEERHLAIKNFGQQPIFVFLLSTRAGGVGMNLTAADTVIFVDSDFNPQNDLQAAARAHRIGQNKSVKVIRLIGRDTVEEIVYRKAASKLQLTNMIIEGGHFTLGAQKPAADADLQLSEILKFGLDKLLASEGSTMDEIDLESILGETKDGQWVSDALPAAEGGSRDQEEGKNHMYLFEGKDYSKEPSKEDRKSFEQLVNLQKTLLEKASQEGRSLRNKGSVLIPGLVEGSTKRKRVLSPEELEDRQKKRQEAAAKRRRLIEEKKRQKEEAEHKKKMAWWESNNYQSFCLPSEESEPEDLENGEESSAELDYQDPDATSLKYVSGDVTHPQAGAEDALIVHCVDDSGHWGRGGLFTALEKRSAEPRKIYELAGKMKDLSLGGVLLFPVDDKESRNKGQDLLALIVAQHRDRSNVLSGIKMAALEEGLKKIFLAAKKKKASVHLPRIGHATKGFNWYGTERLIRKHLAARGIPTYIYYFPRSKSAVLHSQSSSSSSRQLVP
# This is one part of the list.
# Columns and labels:
# Assay in all cases: log2 fold change, soluble protein after heating vs DMSO (PISA); higher = thermal stabilisation; K562 lysate, 10 uM; active = over 0.2 and 3.5 SD of the protein, either way, in both replicates (recomputed)
# [1] = compound: CCCS(=O)(=O)Nc1ccc(F)c(C(=O)c2c[nH]c3ncc(-c4ccc(Cl)cc4)cc23)c1F [vemurafenib]
# Outline: (§1)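 Values give the log-two fold change in thermal stability against solvent controls, from duplicates. Crude K562 extract at 1 mg/mL protein, made by dounce homogenisation in PBS pH 7.4 with 1 mM MgCl2, was treated with 10 μM compound for 30 min. After 3 min heating across 48°C-58°C, aliquots were pooled, adjusted to 0.5% NP-40 at 4°C and centrifuged at 21,000xg for 90 min. The supernatant was measured by TMTpro 16plex LC-MS/MS with channel sums equalised.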
# [2] = compound: CCCS(=O)(=O)Nc1ccc(F)c(C(=O)c2c[nH]c3ncc(Cl)cc23)c1F
# Outline: as §1
# [3] = compound: CCN(CCCOc1ccc2c(Nc3cc(CC(=O)Nc4cccc(F)c4)[nH]n3)ncnc2c1)CCOP(=O)(O)O [barasertib]
# Outline: as §1
# [4] = compound: CC[C@@H]1C(=O)N(C)c2cnc(Nc3ccc(C(=O)NC4CCN(C)CC4)cc3OC)nc2N1C1CCCC1
# Outline: as §1
# [5] = compound: CC[C@@H]1C(=O)N(C)c2cnc(Nc3ccc(C(=O)N[C@H]4CC[C@H](N5CCN(CC6CC6)CC5)CC4)cc3OC)nc2N1C(C)C [volasertib]
# Outline: as §1
# [6] = compound: CCn1c(C(=O)N(C2CC2)C2CC2)cc2c3c(ncn3C)c(Nc3cc(C)n(C)n3)nc21
# Outline: as §1
# [7] = compound: CCn1cc(-c2ccnc3[nH]c(-c4cccc(CN(C)C)c4)cc23)c(-c2ccc(NC(=O)N(C)C)cc2)n1
# Outline: as §1
# [8] = compound: CN1CCC(CNc2ccc3ncc(-c4cccc(OC(F)(F)F)c4)n3n2)CC1
# Outline: as §1
# [9] = compound: CN1CCN(CCOc2cc(OC3CCOCC3)c3c(Nc4c(Cl)ccc5c4OCO5)ncnc3c2)CC1 [saracatinib]
# Outline: as §1
# [10] = compound: CN1CCN(c2nc(C3=C(c4c[nH]c5ccccc45)C(=O)NC3=O)c3ccccc3n2)CC1 [sotrastaurin]
# Outline: as §1
# [11] = compound: CN1CC[C@H](c2c(O)cc(O)c3c(=O)cc(-c4ccccc4Cl)oc23)[C@H](O)C1 [alvocidib]
# Outline: as §1
# [12] = compound: CN1CCc2c(c3ccccc3n2Cc2ccc(C(=O)NO)cc2)C1 [Tubastatin A]
# Outline: as §1
# [13] = compound: CNC(=O)C1=CC=CC=C1NC2=NC(=NC=C2Cl)NC3=C(C=C(C=C3)N4CCOCC4)OC
# Outline: as §1
# [14] = compound: CNC(=O)c1ccc(Nc2ncc(C(F)(F)F)c(NCc3nccnc3N(C)S(C)(=O)=O)n2)cc1 [defactinib]
# Outline: as §1
# [15] = compound: CNc1nc(-c2ccc3c(N)n[nH]c3c2)cc(N2C[C@@H](C(=O)NC3CCCCC3)CC[C@H]2C)n1
# Outline: as §1
# [16] = compound: COC(=O)N[C@@H](C)CNc1nccc(-c2cn(C(C)C)nc2-c2cc(Cl)cc(NS(C)(=O)=O)c2F)n1 [encorafenib]
# Outline: as §1
# [17] = compound: COC(=O)[C@H](CCSC)NC(=O)C1=C(C=C(C=C1)NC[C@H](CS)N)C2=CC=CC=C2
# Outline: as §1
# [18] = compound: COc1cc(Nc2ncc3c(n2)-c2ccc(Cl)cc2C(c2c(F)cccc2OC)=NC3)ccc1C(=O)O [alisertib]
# Outline: as §1
# [19] = compound: COc1cc2nc(-c3cc(F)ccc3O)nc(N[C@@H]3CNC[C@H]3C(C)(C)O)c2cc1OC
# Outline: as §1
# [20] = compound: COc1cc2ncnc(Nc3ccc(F)c(Cl)c3)c2cc1OCCCN1CCOCC1 [gefitinib]
# Outline: as §1
Target,log2 fold change [1],log2 fold change [2],log2 fold change [3],log2 fold change [4],log2 fold change [5],log2 fold change [6],log2 fold change [7],log2 fold change [8],log2 fold change [9],log2 fold change [10],log2 fold change [11],log2 fold change [12],log2 fold change [13],log2 fold change [14],log2 fold change [15],log2 fold change [16],log2 fold change [17],log2 fold change [18],log2 fold change [19],log2 fold change [20]
CHCHD4 isoform 2 (UniProt Q8N4Q1),inactive: 0.144,inactive: 0.015,inactive: 0.109,inactive: 0.072,inactive: 0.057,inactive: -0.1,active: -0.415,inactive: 0.228,inactive: 0.05,inactive: -0.007,inactive: -0.145,inactive: 0.026,inactive: 0.027,inactive: -0.044,inactive: 0.045,inactive: 0.062,inactive: -0.039,inactive: 0.024,inactive: 0.016,inactive: -0.015
CHORDC1 (UniProt Q9UHD1),inactive: 0.017,inactive: -0.003,inactive: -0.029,inactive: 0.009,inactive: 0.02,inactive: 0.002,active: 0.288,inactive: -0.003,inactive: -0.006,inactive: -0.036,inactive: 0.033,inactive: 0.004,inactive: 0.007,inactive: 0,inactive: -0.002,inactive: -0.029,inactive: -0.018,inactive: -0.012,inactive: -0.008,inactive: -0.026
CIC (UniProt I3L2J0),inactive: -0.077,inactive: -0.043,active: 0.4,inactive: -0.057,inactive: -0.032,inactive: 0.001,inactive: -0.05,inactive: -0.004,inactive: 0.021,inactive: -0.016,inactive: 0.005,inactive: -0.03,inactive: 0.072,inactive: 0.041,inactive: 0.035,inactive: -0.002,inactive: 0.052,inactive: -0.027,inactive: 0.158,inactive: -0.098
CHMP6 (UniProt Q96FZ7),inactive: -0.031,inactive: 0.034,inactive: 0.028,inactive: -0.022,inactive: -0.041,inactive: -0.027,inactive: 0.059,inactive: -0.03,inactive: 0.028,inactive: -0.075,inactive: -0.052,inactive: 0.087,inactive: 0.009,inactive: 0.036,inactive: 0.024,inactive: 0.086,inactive: -0.029,inactive: -0.152,inactive: -0.089,inactive: -0.116
CHCHD3 (UniProt Q9NX63),inactive: 0.038,inactive: 0.006,inactive: -0.038,inactive: -0.012,inactive: 0.038,inactive: -0.001,inactive: -0.006,inactive: -0.066,inactive: 0.011,inactive: -0.025,inactive: 0.027,inactive: 0.029,inactive: -0.033,inactive: -0.045,inactive: -0.081,inactive: -0.007,inactive: -0.104,inactive: -0.003,inactive: -0.022,inactive: 0.009
CIP2A (UniProt Q8TCG1),inactive: 0.036,inactive: 0.019,inactive: 0.153,inactive: 0.001,inactive: -0.086,inactive: 0.037,inactive: -0.07,inactive: -0.075,inactive: 0.009,inactive: 0.014,inactive: 0.009,active: -0.294,inactive: -0.015,inactive: 0.003,inactive: -0.074,inactive: 0.008,inactive: 0.053,inactive: -0.004,inactive: -0.014,inactive: -0.018
CLCN3 (UniProt P51790),inactive: -0.096,inactive: -0.076,inactive: 0.014,inactive: -0.178,inactive: -0.025,inactive: 0.034,inactive: 0.009,inactive: 0.004,inactive: 0.01,inactive: -0.017,inactive: -0.03,inactive: -0.012,inactive: -0.042,inactive: -0.024,inactive: -0.194,inactive: 0.05,inactive: 0.003,inactive: 0.005,inactive: -0.043,inactive: 0.029
CHMP4A isoform 2 (UniProt Q9BY43),inactive: 0,inactive: -0.002,inactive: -0.053,inactive: 0.064,inactive: 0.039,inactive: -0.002,active: -0.278,inactive: 0.222,inactive: 0.048,inactive: 0.024,inactive: -0.096,inactive: 0.048,inactive: -0.01,inactive: 0.007,inactive: 0.039,inactive: 0.026,inactive: -0.001,inactive: 0.028,inactive: 0.043,inactive: 0.041
CHERP (UniProt Q8IWX8),inactive: 0,inactive: -0.003,inactive: 0.038,inactive: -0.039,inactive: -0.028,inactive: 0.011,inactive: 0.031,inactive: -0.007,inactive: 0.03,inactive: 0.008,inactive: 0.025,inactive: -0.055,inactive: -0.051,inactive: 0.001,inactive: -0.003,inactive: 0.021,inactive: 0.031,inactive: 0.031,inactive: -0.015,inactive: -0.003
CLASRP (UniProt Q8N2M8),inactive: 0.014,inactive: 0.004,inactive: 0.03,inactive: 0.005,inactive: -0.042,inactive: -0.105,inactive: 0.125,inactive: 0.011,inactive: 0.02,inactive: 0.056,inactive: -0.013,inactive: -0.052,inactive: 0.032,inactive: 0.004,inactive: 0.016,inactive: 0.026,inactive: -0.067,inactive: 0.014,inactive: 0.001,inactive: 0
CMBL (UniProt Q96DG6),inactive: -0.053,inactive: -0.027,inactive: -0.026,inactive: 0.081,inactive: 0.183,inactive: 0.004,inactive: -0.174,inactive: 0.129,inactive: -0.016,inactive: -0.015,inactive: 0.006,inactive: 0.001,inactive: -0.012,inactive: -0.051,inactive: 0.013,inactive: -0.051,inactive: -0.009,inactive: 0.001,inactive: 0.038,inactive: 0.03
CMTM3 (UniProt Q96MX0),inactive: 0.053,inactive: -0.014,inactive: -0.04,inactive: -0.089,inactive: 0.014,inactive: 0.03,inactive: 0.053,inactive: -0.055,inactive: 0.012,inactive: -0.005,inactive: -0.007,inactive: -0.231,inactive: 0.04,inactive: -0.022,inactive: 0.061,inactive: -0.011,inactive: 0.064,inactive: -0.099,inactive: -0.036,inactive: -0.123
CHM (UniProt P24386),inactive: -0.015,inactive: 0.07,inactive: 0.04,inactive: 0.031,inactive: -0.036,inactive: 0.009,inactive: 0.004,inactive: 0,inactive: -0.031,inactive: 0.035,inactive: -0.039,inactive: -0.01,inactive: 0.046,inactive: -0.15,inactive: 0.042,inactive: 0.025,inactive: 0.058,inactive: 0.068,inactive: -0.005,inactive: 0.042
CHMP5 (UniProt Q9NZZ3),inactive: 0,inactive: 0.003,inactive: -0.008,inactive: 0.007,inactive: 0.025,inactive: 0,inactive: -0.045,inactive: 0.023,inactive: -0.02,inactive: -0.015,inactive: -0.027,inactive: 0.052,inactive: 0.002,inactive: 0.066,inactive: -0.017,inactive: 0.006,inactive: -0.013,inactive: 0.007,inactive: 0.017,inactive: 0.041
CHD1L (UniProt Q86WJ1),inactive: 0.033,inactive: 0.011,inactive: 0.062,inactive: -0.029,inactive: -0.09,inactive: 0.024,inactive: -0.053,inactive: -0.054,inactive: 0,inactive: -0.001,inactive: 0.012,inactive: -0.16,inactive: -0.003,inactive: -0.001,inactive: -0.025,inactive: 0.013,inactive: 0.114,inactive: 0.018,inactive: -0.002,inactive: 0.006
CLCC1 (UniProt Q96S66),inactive: 0.001,inactive: 0.011,inactive: 0.017,inactive: 0.01,inactive: 0.031,inactive: 0.026,inactive: -0.07,inactive: 0.059,inactive: 0.036,inactive: -0.03,inactive: -0.041,inactive: -0.011,inactive: 0.02,inactive: 0.003,inactive: -0.026,inactive: 0.028,inactive: -0.078,inactive: -0.014,inactive: -0.008,inactive: 0.009

# Reformatted: results already given
Target | log2 fold change [1] | log2 fold change [2] | log2 fold change [3] | log2 fold change [4] | log2 fold change [5] | log2 fold change [6] | log2 fold change [7] | log2 fold change [8] | log2 fold change [9] | log2 fold change [10] | log2 fold change [11] | log2 fold change [12] | log2 fold change [13] | log2 fold change [14] | log2 fold change [15] | log2 fold change [16] | log2 fold change [17] | log2 fold change [18] | log2 fold change [19] | log2 fold change [20]
CHMP6 (UniProt Q96FZ7) | inactive: -0.031 | inactive: 0.034 | inactive: 0.028 | inactive: -0.022 | inactive: -0.041 | inactive: -0.027 | inactive: 0.059 | inactive: -0.03 | inactive: 0.028 | inactive: -0.075 | inactive: -0.052 | inactive: 0.087 | inactive: 0.009 | inactive: 0.036 | inactive: 0.024 | inactive: 0.086 | inactive: -0.029 | inactive: -0.152 | inactive: -0.089 | inactive: -0.116
CHCHD3 (UniProt Q9NX63) | inactive: 0.038 | inactive: 0.006 | inactive: -0.038 | inactive: -0.012 | inactive: 0.038 | inactive: -0.001 | inactive: -0.006 | inactive: -0.066 | inactive: 0.011 | inactive: -0.025 | inactive: 0.027 | inactive: 0.029 | inactive: -0.033 | inactive: -0.045 | inactive: -0.081 | inactive: -0.007 | inactive: -0.104 | inactive: -0.003 | inactive: -0.022 | inactive: 0.009
CIP2A (UniProt Q8TCG1) | inactive: 0.036 | inactive: 0.019 | inactive: 0.153 | inactive: 0.001 | inactive: -0.086 | inactive: 0.037 | inactive: -0.07 | inactive: -0.075 | inactive: 0.009 | inactive: 0.014 | inactive: 0.009 | active: -0.294 | inactive: -0.015 | inactive: 0.003 | inactive: -0.074 | inactive: 0.008 | inactive: 0.053 | inactive: -0.004 | inactive: -0.014 | inactive: -0.018
CLCN3 (UniProt P51790) | inactive: -0.096 | inactive: -0.076 | inactive: 0.014 | inactive: -0.178 | inactive: -0.025 | inactive: 0.034 | inactive: 0.009 | inactive: 0.004 | inactive: 0.01 | inactive: -0.017 | inactive: -0.03 | inactive: -0.012 | inactive: -0.042 | inactive: -0.024 | inactive: -0.194 | inactive: 0.05 | inactive: 0.003 | inactive: 0.005 | inactive: -0.043 | inactive: 0.029
